Drug key:
erlotinib (4000 nM): C#Cc1cccc(Nc2ncnc3cc(OCCOC)c(OCCOC)cc23)c1
GW0742 (10000 nM): Cc1cc(SCc2sc(-c3ccc(C(F)(F)F)c(F)c3)nc2C)ccc1OCC(=O)O
NVP-BEZ235 (20 nM): Cn1c(=O)n(-c2ccc(C(C)(C)C#N)cc2)c2c3cc(-c4cnc5ccccc5c4)ccc3ncc21
veliparib (7000 nM): C[C@]1(c2nc3c(C(N)=O)cccc3[nH]2)CCCN1
temozolomide (10000 nM): Cn1nnc2c(C(N)=O)ncn2c1=O
nutlin-3 (500 nM): COc1ccc(C2=N[C@@H](c3ccc(Cl)cc3)[C@@H](c3ccc(Cl)cc3)N2C(=O)N2CCNC(=O)C2)c(OC(C)C)c1
sorafenib (2000 nM): CNC(=O)c1cc(Oc2ccc(NC(=O)Nc3ccc(Cl)c(C(F)(F)F)c3)cc2)ccn1
dorsomorphin (2000 nM): c1cc(-c2cnn3cc(-c4ccc(OCCN5CCCCC5)cc4)cnc23)ccn1
fingolimod (10000 nM): CCCCCCCCc1ccc(CCC(N)(CO)CO)cc1

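Human melanoma cell lines in 1,536-well plates were treated with two drugs together for 72 h, then fixed, stained and imaged. The read-out is the fraction of cleaved-PARP-positive nuclei, in % of that fraction in the DMSO control; 200 means twice the control level of this apoptosis marker. Concentrations were fixed for each drug; these are the higher of two levels. No replicate spread is given; individual values may be noisy. The marker varies much from line to line, for technical or biological reasons.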 Only some of the drugs and lines screened are listed, without regard to their results.

| Pair | WM1716 |
|---|---|
| NVP-BEZ235 and veliparib | 63.8 |
| nutlin-3 and GW0742 | 394 |
| NVP-BEZ235 and erlotinib | 76.6 |
| GW0742 and dorsomorphin | 28.6 |
| veliparib and sorafenib | 70.1 |
| temozolomide and sorafenib | 235 |
| fingolimod and temozolomide | 120 |
| GW0742 and fingolimod | 4330 |
| erlotinib and GW0742 | 35.3 |
| nutlin-3 and sorafenib | 158 |
| sorafenib and NVP-BEZ235 | 111 |
| veliparib and fingolimod | 137 |
| fingolimod and sorafenib | 1100 |
| nutlin-3 and NVP-BEZ235 | 107 |
| NVP-BEZ235 and temozolomide | 261 |
| sorafenib and GW0742 | 158 |
| fingolimod and erlotinib | 122 |
| GW0742 and veliparib | 58.7 |
| dorsomorphin and erlotinib | 73.3 |
| nutlin-3 and veliparib | 85.7 |
| NVP-BEZ235 and GW0742 | 49.5 |
| erlotinib and sorafenib | 21.7 |
| dorsomorphin and sorafenib | 22.4 |
| dorsomorphin and temozolomide | 74.6 |
| temozolomide and veliparib | 520 |
| temozolomide and nutlin-3 | 920 |
| dorsomorphin and nutlin-3 | 74.6 |
| nutlin-3 and fingolimod | 132 |
| fingolimod and dorsomorphin | 68.8 |
| erlotinib and nutlin-3 | 117 |

The first 3 entries again:

{"pair": "NVP-BEZ235 and veliparib", "WM1716": 63.8}
{"pair": "nutlin-3 and GW0742", "WM1716": 394}
{"pair": "NVP-BEZ235 and erlotinib", "WM1716": 76.6}

Values as published with doi:10.1371/journal.pone.0140310, rounded.